# Laboratory results taken from publication PMC8765783, “Identification of the potential active site of the septal peptidoglycan polymerase FtsW” (PLoS Genetics, 2022).
# No constants are given. Whether binding was seen depends on the method and setting. In cells and extracts the contact can be indirect. Some binding calls cover weakened binding; strength is not graded here. Where a sequence is shown, tags or fusion partners need not be part of it.
# T1: HisFtsI(PBP3) (E. coli) (UniProt P0AD68)
# T1 sequence: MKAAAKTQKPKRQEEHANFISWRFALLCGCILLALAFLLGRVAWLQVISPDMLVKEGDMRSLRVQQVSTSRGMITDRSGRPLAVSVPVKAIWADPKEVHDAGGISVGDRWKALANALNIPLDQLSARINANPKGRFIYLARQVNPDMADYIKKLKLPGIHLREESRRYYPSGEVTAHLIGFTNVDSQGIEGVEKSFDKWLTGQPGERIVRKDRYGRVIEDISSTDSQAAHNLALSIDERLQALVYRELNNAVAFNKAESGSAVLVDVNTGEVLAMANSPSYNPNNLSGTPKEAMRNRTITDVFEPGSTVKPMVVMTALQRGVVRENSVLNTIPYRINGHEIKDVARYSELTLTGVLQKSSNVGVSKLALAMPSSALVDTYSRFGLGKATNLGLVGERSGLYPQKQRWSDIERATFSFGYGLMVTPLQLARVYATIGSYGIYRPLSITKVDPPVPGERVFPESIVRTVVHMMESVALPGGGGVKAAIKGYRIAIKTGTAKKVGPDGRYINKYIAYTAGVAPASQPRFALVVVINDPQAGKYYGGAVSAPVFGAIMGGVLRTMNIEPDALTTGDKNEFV
# B1: FtsW, untagged (enzyme, UniProt P0ABG4 1-414)
# chain: MRLSLPRLKMPRLPGFSILVWISTALKGWVMGSREKDTDSLIMYDRTLLWLTFGLAAIGFIMVTSASMPIGQRLTNDPFFFAKRDGVYLILAFILAIITLRLPMEFWQRYSATMLLGSIILLMIVLVVGSSVKGASRWIDLGLLRIQPAELTKLSLFCYIANYLVRKGDEVRNNLRGFLKPMGVILVLAVLLLAQPDLGTVVVLFVTTLAMLFLAGAKLWQFIAIIGMGISAVVLLILAEPYRIRRVTAFWNPWEDPFGSGYQLTQSLMAFGRGELWGQGLGNSVQKLEYLPEAHTDFIFAIIGEELGYVGVVLALLMVFFVAFRAMSIGRKALEIDHRFSGFLACSIGIWFSFQALVNVGAAAGMLPTKGLTLPLISYGGSSLLIMSTAIMMLLRIDYETRLEKAQAFVRGSR
# Molecular target: T1, HisFtsI(PBP3) (E. coli)
# Assay: pull-down; His-tagged protein co-expressed with the untagged partner in E. coli; membranes solubilised in DDM; His-tagged protein held on a HisTrap column (50 mM Tris-HCl pH 7.5, 300 mM NaCl, 10% glycerol, 1 mM DDM, 50 mM imidazole), eluted with an imidazole gradient; SDS-PAGE with Coomassie, Bocillin FL fluorescence or anti-HA blot
binder,measurement,value
B1,binding,binds
